Library screening results

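Viability assay of Plasmodium falciparum sporozoites; the read-out is not stated. The concentration is filed as 10 mM, unlikely as a test dose, so the dose is not known. Direction is inferred from retests: higher values go with lower viability. Strong results were mostly tested again. About 34,000 compounds were tested under these conditions; 0.84% (about 280) showed 50% or more at least once.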

Values are the deposited “Percent Effect”, in %.
The controls that fix the scale are not given in the record; negative values are as filed.
The compounds are a random part of those screened.
Two or more numbers in one place are separate tests of the same structure; such repeats can differ widely.

compound,percent effect
O=C(CN1CC(n2cccn2)C1)NCCc1c[nH]c2ccccc12,-8.438
Cc1nnc2n1CCN(C(C(=O)NC(C)C)c1ccccc1)C2 (stereo not shown),6.415
[H][C@]12CC[C@]([H])(CN(C(=O)Cc3ccccn3)C1)N(Cc1ccccc1)C2=O,6.471
Oc1ccccc1-c1cc(-c2nc(C3CC3)n[nH]2)[nH]n1,-56.19
CN1CCC2(CC1)CN(C(=O)c1cccnc1)c1ccc(Cl)cc12,-9.114
CC(C)c1nccn1C1CCCN(C(=O)c2nccnc2N)C1 (stereo not shown),-8.707
CC(C)c1nnc(NC(=O)CN2C(=O)c3ccccc3NC2C(C)C)s1 (stereo not shown),-6.136
CC(C)c1nc(CN(C)CC2CCN(CCO)CC2)no1,-4.824
c1ccc(-n2ccc(CNCC3CCCN3c3cccnn3)n2)cc1 (stereo not shown),-2.244
CN(Cc1ccc2nsnc2c1)CC1(O)CCNC1 (stereo not shown),-0.4353
N#Cc1ccc(C(=O)N2CCc3c(COCC4CC4)cncc3C2)cc1,14.19
CN(C)C(=O)CN1CCC2(CC1)C[C@@H](O)[C@H](c1ccccc1)NC2=O,7.199
Cl.O=C(NCC1CCC2(CCNCC2)O1)C1CC1 (stereo not shown),-3.08
Cc1cnn(CC2CCCN2C(=O)c2ccc(-n3cccn3)nc2)c1 (stereo not shown),2.963
COCCOCCCC(=O)N1CCC(Cc2ccccc2OC)CC1,-24.69
[H][C@@]12CCN(S(=O)(=O)c3ccc(C)cc3)C[C@]1(C(=O)NC)CCO2,0.9549
Cc1nc(Nc2ncc(C)s2)cc(C2CCCN2)n1.Cl (stereo not shown),-1.56
CN1CCN(C(=O)c2n[nH]c3c2CN(C2CCOC2)CC3)CC1 (stereo not shown),3.065
CCOCCCn1c(NC(=O)c2cc(C)on2)nc2ccccc21,16.33
[H][C@@]12C[C@H](C(=O)NCC3CC3)CN(Cc3ccsc3)[C@]1([H])CCO2,3.915
Cc1oc(-c2ccco2)nc1CN1CCCC(Cn2cncn2)C1 (stereo not shown),10.48
Cn1ccnc(Sc2ccccc2)c1=O,-2.477
COc1ccnc(N2CCN(CC(=O)N3CCC(C)CC3)CC2)n1,4.039
CN(CC(=O)N1CCC(Oc2ccccc2)CC1)c1cnccn1,-0.7519
Cc1ccccc1N1CCN(C(=O)CCc2nncn2C)C(C)C1 (stereo not shown),-7.18
COCCn1cc2c(n1)C(CNS(C)(=O)=O)OCC2 (stereo not shown),0.7895
CC(C)CNC(=O)CC1OCCc2ccsc21 (stereo not shown),-33.37
Cc1cnn(CC2CN(c3ncnc4[nH]ccc34)CCO2)c1 (stereo not shown),-1.413
O=C(CCC(=O)c1cccs1)NC1(C(=O)NCC2CC2)CCCC1,-11.46
CNC(=O)c1cn[nH]c1C1CCCN1c1nc(C)cc(C)n1 (stereo not shown),11.3
CCc1noc(CCC(=O)N2CCC(c3ccn[nH]3)C2)n1 (stereo not shown),15.6
CCc1nc2n(n1)CCCC2NC(=O)Nc1cc(OC)ccc1C (stereo not shown),0.5562
[H][C@@]12C[C@H](C(=O)N3CCCC3)[C@@]([H])(CN(C(=O)Nc3ccc(F)cc3)C1)O2,5.223
COCCN1CCN(c2ccc(C)nn2)Cc2ccc(C)nc21.O=C(O)C(F)(F)F.O=C(O)C(F)(F)F,23.12
CS(=O)(=O)NC1CCCN(C(=O)NCc2cccc(F)c2)C1 (stereo not shown),-3.571
[H][C@]12CN(C(=O)c3cnn(C)c3)C[C@@]1([H])OCCN(S(C)(=O)=O)C2,-2.6
CCOc1ncccc1NC(=O)N1CCN(c2cccc(C)c2C)CC1,1.921
CC(NC(=O)N1CCC1)c1ccc(S(C)(=O)=O)cc1 (stereo not shown),-11.16
O=C(c1[nH]nc2c1CCCC2)N1CCC(OCCN2CCCCC2)C1 (stereo not shown),-13.16 and -1.47
Cc1nccc(C(=O)N2CCOC(c3nc(C(C)C)n[nH]3)C2)n1 (stereo not shown),-2.279
NC(=O)C1(c2cnccn2)CCCN1Cc1cc2ccccc2o1 (stereo not shown),-3.199
CN1CCCC1CCNC(=O)c1ccccc1-n1cnc(CN)c1 (stereo not shown),-1.668
O=C(CCNc1ccc(Br)cn1)NCc1ccncc1,7.436
Cn1cc(S(=O)(=O)N2CCCC2CC(=O)c2cccs2)cn1 (stereo not shown),-11.41
CC(=O)N(C)C1CCN(C(=O)NCC(C)Cc2cccs2)CC1 (stereo not shown),-12.9
CCCNC(=O)CN1CCC(NC(=O)c2cc(CC)ccc2O)CC1,14.56
CNC(=O)C1CCN(C(=O)NCc2ccc(-c3ccn[nH]3)cc2)CC1,0.03453
CC1CCCCN1C(=O)CN1CCN(c2ccc3nncn3n2)CC1 (stereo not shown),6.441
CNCC(=O)N1CCCC(c2ccnc(Nc3cnccn3)n2)C1 (stereo not shown),-8.636
CCc1nc2n(n1)CC(NCc1cnn(Cc3ccccc3)c1)CC2 (stereo not shown),7.833
[H][C@@]12CN(S(=O)(=O)c3ccc(F)cc3)C[C@@]1([H])OCC(=O)N2,17.04
COCc1cncc2c1CCN(C(=O)c1cscn1)C2,6.076
O=C(c1ccc(C2CCCO2)s1)N1CCOCC1 (stereo not shown),-24.05 and -11.59
CCn1cc(CN2CCN(CC(O)c3ccc(C)cc3C)CC2)cn1 (stereo not shown),0.1558
O=C(O)C(F)(F)F.[H][C@@]12CCN(Cc3ccc(F)cc3)C[C@]1([H])[C@@H](CNS(C)(=O)=O)OC2,14.61
NC(=O)C1CCN(C(=O)c2cccn2Cc2cccs2)C1 (stereo not shown),21.51
[H][C@@]12CN(Cc3cccnc3)CCO[C@]1([H])CN(C(=O)c1ncccn1)C2,-1.46
CCCC1(CO)CCCN(C(=O)CN2CCN(CC)CC2)C1 (stereo not shown),0.1791
CC[C@@]1(O)CCN(C(=O)c2ccsc2)C[C@H]1O,-12.09
Cc1nc(NC(=O)C2CCCN(C(N)=O)C2)sc1-c1ccccc1 (stereo not shown),6.257
CCOC(=O)CNC(=O)Cn1c(-c2ccoc2)nc(C)c1C,-14.76
CCC(=O)NCC(=O)NCc1cc(Br)ccc1OC(F)F,11.16
CN1CCCC(c2cccc(-c3cccc(F)c3)n2)C1 (stereo not shown),2.841
CC(=O)N1CCC(C(=O)NCc2cc[nH]n2)(c2ccccc2)CC1,2.866
CC(=O)c1ccc(NC(=O)c2ccc3c(c2)C2(CCCCC2)CN3)cc1.O=C(O)C(F)(F)F,0.7666
COc1c(CNCC(O)c2ccc(C)cc2)c(C(C)C)nn1C (stereo not shown),-4.932
O=C(Cc1n[nH]c2ccccc12)N1CCCC1Cn1cccn1 (stereo not shown),5.404
CC(C(=O)NCc1ccc(N2CCCCC2)nc1)S(C)(=O)=O (stereo not shown),9.015
FC1(F)CCN(Cc2ccncc2)CC12CCN(c1cnccn1)C2.O=C(O)C(F)(F)F.O=C(O)C(F)(F)F.O=C(O)C(F)(F)F (stereo not shown),22.83
O=C(c1ccc(OCC2CC2)nc1)N1CCCC(n2cncn2)C1 (stereo not shown),2.415
Cc1cc(-c2cnc(N3CCCC(C)C3)nc2C(C)C)on1 (stereo not shown),4.363
CC(C)(C)SCCCC(=O)N1CCC(Nc2cccnn2)CC1,-4.96
CCN1CCC(NC(=O)CN2CCc3c(ncn3C)C2)CC1,-7.637
CC(C)Nc1nc2c(s1)C(=O)CN(C(=O)NCCc1ccccc1)C2,10.25
Cc1ccc(Nc2nccc(C3CCN(CC(N)=O)C3)n2)nc1 (stereo not shown),101.9 and 103.5 and 87.92
CC(C)CC(=O)N1CCN(Cc2csc(-c3ncccn3)n2)CC1,-3.431 and -29.13 and -32.74
Cc1cccc(NC2CCN(C(=O)Nc3ccc(F)cc3C)CC2)n1,7.391 and -10.81 and -13.39
CCOC(=O)CCN(Cc1cccnc1)C(=O)c1cc(Cl)c[nH]1,11.4
Cc1csc(CNCc2c(C)nn(C)c2N2CCOCC2)n1,8.772
O=C(O)C1CCN(c2ccc(Sc3ccc(Br)cc3)nn2)CC1,-3.247 and -5.657
CC(=O)N1N=C(c2ccccc2)OC1C(=O)N(C)Cc1ccccc1 (stereo not shown),-11.55
Cc1ncc(C(=O)N2CCCC(n3nc(C)nc3C)C2)c(C(C)C)n1 (stereo not shown),0.8488
CN1CCC(c2cncc(-c3cccc(Cl)c3)n2)CC1,14.05
Cn1cc(CC(=O)N2CCC(Nc3cccnn3)CC2)c2ccccc21,7.111
O=C(c1cnn(-c2ccccc2)n1)N1CCCC(n2cccn2)C1 (stereo not shown),-0.06572
CNC(=O)C1(c2cnccn2)CCCN1C(=O)c1ccccc1C (stereo not shown),5.038
CCCN1CCN(C(=O)Cc2nc(-c3ccco3)oc2C)CC1,-5.128
CC(C)c1cc(C(=O)NCCN2CCCS2(=O)=O)n[nH]1,3.221

The first 10 entries again:

* O=C(CN1CC(n2cccn2)C1)NCCc1c[nH]c2ccccc12 | -8.438%
* Cc1nnc2n1CCN(C(C(=O)NC(C)C)c1ccccc1)C2 (stereo not shown) | 6.415%
* [H][C@]12CC[C@]([H])(CN(C(=O)Cc3ccccn3)C1)N(Cc1ccccc1)C2=O | 6.471%
* Oc1ccccc1-c1cc(-c2nc(C3CC3)n[nH]2)[nH]n1 | -56.19%
* CN1CCC2(CC1)CN(C(=O)c1cccnc1)c1ccc(Cl)cc12 | -9.114%
* CC(C)c1nccn1C1CCCN(C(=O)c2nccnc2N)C1 (stereo not shown) | -8.707%
* CC(C)c1nnc(NC(=O)CN2C(=O)c3ccccc3NC2C(C)C)s1 (stereo not shown) | -6.136%
* CC(C)c1nc(CN(C)CC2CCN(CCO)CC2)no1 | -4.824%
* c1ccc(-n2ccc(CNCC3CCCN3c3cccnn3)n2)cc1 (stereo not shown) | -2.244%
* CN(Cc1ccc2nsnc2c1)CC1(O)CCNC1 (stereo not shown) | -0.4353%

Data taken from ChEMBL document CHEMBL3988442, “University of Dundee, Small-Polar-MMV Screening Library” (2021).